PubChem BioAssay AID504795, Drosophila RNAi Screening Center | 2011

Test: 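Knock-downs causing abnormal branching, bundling, swelling or growth of cultured neurons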 (primary screen)
Cells: primary Drosophila neurons and glia
Reagent: long dsRNA against Drosophila genes, 250 ng dsRNA per well
Time to read-out: one week
Measured: 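GFP-labelled neurons and glia imaged live by automated microscope one week after 250 ng dsRNA per well; morphology scored by eye as descriptive phenotype terms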
Only reagents picked out of a larger screen are listed. 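Every listed dsRNA shows some phenotype; how reagents were selected for listing is not stated.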 Reagents against one gene are numbered here. No sequences are given here.

phenotype seen, replicate 1, by predicted target and reagent
mtDNA-helicase (GeneID 34307): #1 too many neurite branches
dpr9 (GeneID 2768670): #1 sheet-like cell extensions
CG15185 (GeneID 40798): #1 beaded; swollen axons
scb (GeneID 36692): #1 axon bundles split apart; #2 too many neurite branches
RpL5 (GeneID 3355124): #1 too many neurite branches
TotB (GeneID 42474): #1 too many neurite branches
vig (GeneID 34885): #1 axon bundles split apart
